Experimental findings from the GenesisPotency data set are described below.

Hit rate of the full screen: of about 150,000 compounds, about 6,500 (4.3%) were called active. Another 12% or so got no clear call; they are omitted. The call rests on the fitted dose curve; in most records, active means well fitted inhibition curve with a large enough effect (not every such curve was filed as active); inconclusive means small, poorly fitted or top-dose-only effect, or another doubt; inactive means no such curve, though single readings can be large or run the other way. Some of the results follow.

This experiment addresses T1, 15-hydroxyprostaglandin dehydrogenase [NAD(+)], Homo sapiens (UniProt P15428).
T1 sequence (whole entry): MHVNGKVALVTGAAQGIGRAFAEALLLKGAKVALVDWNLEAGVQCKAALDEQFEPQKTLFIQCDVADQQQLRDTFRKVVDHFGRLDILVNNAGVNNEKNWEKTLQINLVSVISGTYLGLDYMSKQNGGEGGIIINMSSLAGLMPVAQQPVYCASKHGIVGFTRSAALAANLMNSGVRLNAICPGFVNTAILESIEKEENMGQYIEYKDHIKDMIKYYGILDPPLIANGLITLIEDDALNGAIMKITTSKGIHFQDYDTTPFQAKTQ
As to the kind of experiment: qHTS Assay for Inhibitors of HPGD (15-Hydroxyprostaglandin Dehydrogenase).
In the case of `O=C(O)c1cc(-c2ccc(F)cc2F)ccc1O`, the result was inactive.
